Drawing on article PMC8934662, this text covers binding for two substances.

Amino acid sequences for entries named in this document (tags omitted).
UniProt Q9D0L8: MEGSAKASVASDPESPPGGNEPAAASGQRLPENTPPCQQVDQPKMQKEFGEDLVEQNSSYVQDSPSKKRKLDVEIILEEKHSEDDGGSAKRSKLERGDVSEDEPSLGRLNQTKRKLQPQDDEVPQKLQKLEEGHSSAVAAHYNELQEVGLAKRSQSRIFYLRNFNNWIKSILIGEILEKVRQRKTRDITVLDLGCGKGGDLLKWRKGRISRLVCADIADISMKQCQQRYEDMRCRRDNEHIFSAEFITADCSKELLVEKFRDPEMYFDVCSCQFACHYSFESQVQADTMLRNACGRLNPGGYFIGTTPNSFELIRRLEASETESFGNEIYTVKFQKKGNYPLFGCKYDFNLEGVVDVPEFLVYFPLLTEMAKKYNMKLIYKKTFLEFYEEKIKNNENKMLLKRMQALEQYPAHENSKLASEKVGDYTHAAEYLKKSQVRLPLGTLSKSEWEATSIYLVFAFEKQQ
UniProt Q9CQY2: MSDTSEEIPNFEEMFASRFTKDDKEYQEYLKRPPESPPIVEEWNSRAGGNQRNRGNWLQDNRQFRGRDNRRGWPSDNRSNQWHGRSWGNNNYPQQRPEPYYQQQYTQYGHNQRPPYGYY
UniProt O35286: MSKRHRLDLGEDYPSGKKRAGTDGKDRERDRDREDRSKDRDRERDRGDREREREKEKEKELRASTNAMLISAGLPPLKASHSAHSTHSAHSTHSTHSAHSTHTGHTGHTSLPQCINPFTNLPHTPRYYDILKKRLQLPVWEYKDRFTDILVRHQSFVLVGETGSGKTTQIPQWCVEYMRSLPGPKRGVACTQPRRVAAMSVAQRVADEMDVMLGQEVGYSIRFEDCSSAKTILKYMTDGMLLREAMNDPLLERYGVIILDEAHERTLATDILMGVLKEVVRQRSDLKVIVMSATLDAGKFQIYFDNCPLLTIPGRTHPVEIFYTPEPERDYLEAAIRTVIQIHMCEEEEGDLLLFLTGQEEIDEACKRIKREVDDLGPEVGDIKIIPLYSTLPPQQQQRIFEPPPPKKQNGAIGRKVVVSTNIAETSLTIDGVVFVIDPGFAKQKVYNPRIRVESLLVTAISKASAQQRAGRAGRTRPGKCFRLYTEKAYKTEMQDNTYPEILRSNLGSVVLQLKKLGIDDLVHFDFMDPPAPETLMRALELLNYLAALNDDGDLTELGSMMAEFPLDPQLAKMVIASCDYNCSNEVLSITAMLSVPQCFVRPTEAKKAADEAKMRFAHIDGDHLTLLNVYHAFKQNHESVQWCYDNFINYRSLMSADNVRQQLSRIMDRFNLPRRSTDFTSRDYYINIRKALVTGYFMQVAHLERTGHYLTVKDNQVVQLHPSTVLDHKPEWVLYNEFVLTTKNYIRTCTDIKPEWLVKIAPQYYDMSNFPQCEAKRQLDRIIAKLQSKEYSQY

Results are given in words; binding and its absence hold for the method and conditions named. In cells and extracts the contact can be indirect. Some results given as binding are weak or reduced against the parent protein; the word gives no strength. For some assays here: Where a sequence is shown, tags or fusion partners need not be part of it.

For experiment [1], the target named is HA-GFP-RNMT (mouse (endogenous gene in murine ESCs)) (UniProt Q9D0L8). The experiment can be described thus: co-IP; immunoprecipitation from lysates of HA-GFP knock-in murine ESCs, western blot; the methods describe IP with anti-RNMT or anti-CMTR1 antibody and protein G Dynabeads, and IP with anti-HA magnetic beads; which was used here is not told.
The target of experiment [2] is T1, HA-GFP-CMTR1 (mouse (endogenous gene in murine ESCs)) (UniProt Q9DBC3).
T1 sequence: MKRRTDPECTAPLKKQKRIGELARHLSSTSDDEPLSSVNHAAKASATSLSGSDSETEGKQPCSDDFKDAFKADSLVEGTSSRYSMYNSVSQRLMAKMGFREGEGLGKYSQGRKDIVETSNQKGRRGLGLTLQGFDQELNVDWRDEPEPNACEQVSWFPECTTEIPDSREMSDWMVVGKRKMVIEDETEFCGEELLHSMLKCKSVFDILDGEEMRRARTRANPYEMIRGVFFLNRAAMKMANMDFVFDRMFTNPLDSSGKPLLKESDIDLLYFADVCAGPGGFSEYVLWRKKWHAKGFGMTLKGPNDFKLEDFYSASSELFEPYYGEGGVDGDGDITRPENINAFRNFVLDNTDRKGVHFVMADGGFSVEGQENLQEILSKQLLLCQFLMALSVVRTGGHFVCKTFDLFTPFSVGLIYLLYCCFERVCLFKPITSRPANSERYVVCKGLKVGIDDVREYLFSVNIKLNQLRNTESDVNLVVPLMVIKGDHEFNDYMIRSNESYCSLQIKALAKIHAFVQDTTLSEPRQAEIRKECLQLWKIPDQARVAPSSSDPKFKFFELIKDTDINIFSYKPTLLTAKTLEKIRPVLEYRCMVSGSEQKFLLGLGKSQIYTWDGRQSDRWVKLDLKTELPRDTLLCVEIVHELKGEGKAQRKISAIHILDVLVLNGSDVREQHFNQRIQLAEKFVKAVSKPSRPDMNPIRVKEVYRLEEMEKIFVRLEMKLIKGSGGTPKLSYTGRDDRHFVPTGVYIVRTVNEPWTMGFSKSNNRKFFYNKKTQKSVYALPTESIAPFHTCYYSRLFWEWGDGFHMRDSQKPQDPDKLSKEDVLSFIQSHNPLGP
The experiment is described as above.

On to RAM (from UniProt Q9CQY2 1-119), for which the binding result in experiment [1] is listed as “binds”.

As for “DHX15 (from UniProt O35286 1-795) (enzyme)”, the binding entry in experiment [2] is on record as “binds weakly”.
